Laboratory results: PubChem BioAssay AID1224830 (NIAID, 2016)
This is one part, drawn at random, of about 18,000 deposited reagents. In the full data, about 2,900 (16%) are marked active. 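Calls are made per well; low scores hint the gene aids the LPS response, high scores that it dampens it.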 Repeated entries: four replicate wells of each siRNA pool.

Screen: 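Genes whose knock-down alters the TNF-alpha reporter response to LPS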 (primary screen)
Cells: human THP-1 monocytic leukaemia cells, TNF dual-luciferase reporter clone, PMA-differentiated to macrophage-like cells
Reagents: siRNA pool against human genes, 50 nM
Timing: LPS for 4 h, given about 3 days after siRNA transfection
Conditions: bacterial LPS (TLR4 ligand), 10 ng/ml
Detection: 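Ratio of firefly to renilla light, scaled to the plate median and expressed as a robust z-score per replicate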
Reading the numbers: TNF reporter robust z-score: higher = stronger TNF reporter response to LPS
Hit rule: 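Each well counts as active if its z-score is over 2.8 or under -1.5; controls are left without a call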

How did the screen score RABGAP1 (RAB GTPase activating protein 1) [SID315455384]?
TNF reporter robust z-score: 0.08; call: inactive

How did the screen score RABGAP1 (RAB GTPase activating protein 1) [SID315455384]?
TNF reporter robust z-score: -0.33; call: inactive

What did the screen give for RABGAP1 (RAB GTPase activating protein 1) [SID315455384]?
TNF reporter robust z-score: 0.72; call: inactive

Which result is listed for RABGAP1 (RAB GTPase activating protein 1) [SID315455384]?
TNF reporter robust z-score: 0.57; call: inactive

What is on record for ECT2 (epithelial cell transforming 2) [SID315448428]?
TNF reporter robust z-score: 1.16; call: inactive

What is on record for ECT2 (epithelial cell transforming 2) [SID315448428]?
TNF reporter robust z-score: 1.19; call: inactive

What did the screen give for ECT2 (epithelial cell transforming 2) [SID315448428]?
TNF reporter robust z-score: 0.39; call: inactive

What did the screen give for ECT2 (epithelial cell transforming 2) [SID315448428]?
TNF reporter robust z-score: 0.6; call: inactive

How did the screen score ACER1 (alkaline ceramidase 1) [SID315461672]?
TNF reporter robust z-score: -0.88; call: inactive

For ACER1 (alkaline ceramidase 1) [SID315461672], how do the results read?
TNF reporter robust z-score: -0.52; call: inactive

With ACER1 (alkaline ceramidase 1) [SID315461672], what does the deposit list?
TNF reporter robust z-score: -0.97; call: inactive

With ACER1 (alkaline ceramidase 1) [SID315461672], what was measured?
TNF reporter robust z-score: -1.48; call: inactive

Which result is listed for CPVL (carboxypeptidase vitellogenic like) [SID315457044]?
TNF reporter robust z-score: 0.68; call: inactive

Which result is listed for CPVL (carboxypeptidase vitellogenic like) [SID315457044]?
TNF reporter robust z-score: 0.63; call: inactive

What is on record for CPVL (carboxypeptidase vitellogenic like) [SID315457044]?
TNF reporter robust z-score: -0.31; call: inactive

Which result is listed for CPVL (carboxypeptidase vitellogenic like) [SID315457044]?
TNF reporter robust z-score: -0.07; call: inactive

How did the screen score KLK10 (kallikrein related peptidase 10) [SID315450867]?
TNF reporter robust z-score: 0.49; call: inactive

What is on record for KLK10 (kallikrein related peptidase 10) [SID315450867]?
TNF reporter robust z-score: 1.31; call: inactive

What is on record for KLK10 (kallikrein related peptidase 10) [SID315450867]?
TNF reporter robust z-score: -0.18; call: inactive

Which result is listed for KLK10 (kallikrein related peptidase 10) [SID315450867]?
TNF reporter robust z-score: 0.12; call: inactive

For SUPV3L1 (Suv3 like RNA helicase) [SID315451708], what does the deposit list?
TNF reporter robust z-score: -0.9; call: inactive

Which result is listed for SUPV3L1 (Suv3 like RNA helicase) [SID315451708]?
TNF reporter robust z-score: -1.12; call: inactive

What did the screen give for SUPV3L1 (Suv3 like RNA helicase) [SID315451708]?
TNF reporter robust z-score: -1.13; call: inactive

Which result is listed for SUPV3L1 (Suv3 like RNA helicase) [SID315451708]?
TNF reporter robust z-score: -1.09; call: inactive

What is on record for C4BPA (complement component 4 binding protein alpha) [SID315447616]?
TNF reporter robust z-score: 1.72; call: inactive

Which result is listed for C4BPA (complement component 4 binding protein alpha) [SID315447616]?
TNF reporter robust z-score: 1.1; call: inactive

What did the screen give for C4BPA (complement component 4 binding protein alpha) [SID315447616]?
TNF reporter robust z-score: 0.84; call: inactive

For C4BPA (complement component 4 binding protein alpha) [SID315447616], what was measured?
TNF reporter robust z-score: 1.51; call: inactive

With GRB2 (growth factor receptor bound protein 2) [SID315449030], how do the results read?
TNF reporter robust z-score: 2.83; call: active

What is on record for GRB2 (growth factor receptor bound protein 2) [SID315449030]?
TNF reporter robust z-score: 1.28; call: inactive

Which result is listed for GRB2 (growth factor receptor bound protein 2) [SID315449030]?
TNF reporter robust z-score: -0.86; call: inactive

What did the screen give for GRB2 (growth factor receptor bound protein 2) [SID315449030]?
TNF reporter robust z-score: -0.41; call: inactive

What did the screen give for ZNF696 (zinc finger protein 696) [SID315459578]?
TNF reporter robust z-score: 1.49; call: inactive

Which result is listed for ZNF696 (zinc finger protein 696) [SID315459578]?
TNF reporter robust z-score: 0.72; call: inactive

How did the screen score ZNF696 (zinc finger protein 696) [SID315459578]?
TNF reporter robust z-score: 0.6; call: inactive

For ZNF696 (zinc finger protein 696) [SID315459578], what does the deposit list?
TNF reporter robust z-score: 0.41; call: inactive

How did the screen score NF2 (NF2, moesin-ezrin-radixin like (MERLIN) tumor suppressor) [SID315450219]?
TNF reporter robust z-score: 0.86; call: inactive

For NF2 (NF2, moesin-ezrin-radixin like (MERLIN) tumor suppressor) [SID315450219], how do the results read?
TNF reporter robust z-score: 0.71; call: inactive

For NF2 (NF2, moesin-ezrin-radixin like (MERLIN) tumor suppressor) [SID315450219], how do the results read?
TNF reporter robust z-score: 0.39; call: inactive

How did the screen score NF2 (NF2, moesin-ezrin-radixin like (MERLIN) tumor suppressor) [SID315450219]?
TNF reporter robust z-score: -0.69; call: inactive

Active calls, among the entries above:
GRB2 (growth factor receptor bound protein 2) [SID315449030] → TNF reporter robust z-score: 2.83; call: active

The listing continues.
With MRTFA (myocardin related transcription factor A) [SID315458490], what does the deposit list?
TNF reporter robust z-score: -0.64; call: inactive

What is on record for MRTFA (myocardin related transcription factor A) [SID315458490]?
TNF reporter robust z-score: -0.18; call: inactive

What is on record for MRTFA (myocardin related transcription factor A) [SID315458490]?
TNF reporter robust z-score: -1.08; call: inactive

Which result is listed for MRTFA (myocardin related transcription factor A) [SID315458490]?
TNF reporter robust z-score: -0.57; call: inactive

For RNF157 (ring finger protein 157) [SID315461251], what does the deposit list?
TNF reporter robust z-score: -1.07; call: inactive

For RNF157 (ring finger protein 157) [SID315461251], what was measured?
TNF reporter robust z-score: 1.04; call: inactive

For RNF157 (ring finger protein 157) [SID315461251], what was measured?
TNF reporter robust z-score: -0.53; call: inactive

How did the screen score RNF157 (ring finger protein 157) [SID315461251]?
TNF reporter robust z-score: 2; call: inactive

With YPEL2 (yippee like 2) [SID315464485], how do the results read?
TNF reporter robust z-score: 0.81; call: inactive

What is on record for YPEL2 (yippee like 2) [SID315464485]?
TNF reporter robust z-score: 1.84; call: inactive

For YPEL2 (yippee like 2) [SID315464485], what does the deposit list?
TNF reporter robust z-score: 0.4; call: inactive

For YPEL2 (yippee like 2) [SID315464485], what does the deposit list?
TNF reporter robust z-score: 1.41; call: inactive

What is on record for ZNF202 (zinc finger protein 202) [SID315452279]?
TNF reporter robust z-score: -0.04; call: inactive

What did the screen give for ZNF202 (zinc finger protein 202) [SID315452279]?
TNF reporter robust z-score: -0.19; call: inactive

What did the screen give for ZNF202 (zinc finger protein 202) [SID315452279]?
TNF reporter robust z-score: 0.05; call: inactive

What is on record for ZNF202 (zinc finger protein 202) [SID315452279]?
TNF reporter robust z-score: -0.54; call: inactive

What did the screen give for TRIM41 (tripartite motif containing 41) [SID315460871]?
TNF reporter robust z-score: -1.03; call: inactive

What did the screen give for TRIM41 (tripartite motif containing 41) [SID315460871]?
TNF reporter robust z-score: -2.18; call: active

For TRIM41 (tripartite motif containing 41) [SID315460871], how do the results read?
TNF reporter robust z-score: -0.24; call: inactive

For TRIM41 (tripartite motif containing 41) [SID315460871], what does the deposit list?
TNF reporter robust z-score: -1.29; call: inactive
